According to PMC10550995:
Results are given in words; binding and its absence hold for the method and conditions named. Binding seen in cells or lysates may run through a third protein. Some entries that bind do so weakly or less than the wild type. For some assays here: Tags and fused reporters may be left off the sequences shown. One block for each binder: values may come before it.

Protein sequences, listed by entry. Tags and fused reporters are not part of them. Residues count along the entry.
UniProt P11021, residues 19-654: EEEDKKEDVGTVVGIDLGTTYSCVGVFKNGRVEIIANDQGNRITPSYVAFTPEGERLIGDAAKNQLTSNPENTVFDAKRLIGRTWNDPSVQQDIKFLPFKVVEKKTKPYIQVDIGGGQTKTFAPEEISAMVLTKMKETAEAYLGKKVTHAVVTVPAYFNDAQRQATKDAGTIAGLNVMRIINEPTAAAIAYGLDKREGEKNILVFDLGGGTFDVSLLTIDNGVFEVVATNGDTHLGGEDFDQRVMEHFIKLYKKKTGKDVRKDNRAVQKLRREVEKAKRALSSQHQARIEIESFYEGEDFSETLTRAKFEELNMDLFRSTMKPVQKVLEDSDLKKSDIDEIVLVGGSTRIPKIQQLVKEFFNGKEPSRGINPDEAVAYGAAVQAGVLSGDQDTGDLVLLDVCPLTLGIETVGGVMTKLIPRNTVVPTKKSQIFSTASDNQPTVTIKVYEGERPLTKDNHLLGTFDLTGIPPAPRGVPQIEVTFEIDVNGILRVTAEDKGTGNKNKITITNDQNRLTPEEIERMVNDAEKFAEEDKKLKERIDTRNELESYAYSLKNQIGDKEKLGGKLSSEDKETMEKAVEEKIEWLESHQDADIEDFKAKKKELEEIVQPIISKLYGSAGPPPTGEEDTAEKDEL
UniProt P38646, residues 47-679: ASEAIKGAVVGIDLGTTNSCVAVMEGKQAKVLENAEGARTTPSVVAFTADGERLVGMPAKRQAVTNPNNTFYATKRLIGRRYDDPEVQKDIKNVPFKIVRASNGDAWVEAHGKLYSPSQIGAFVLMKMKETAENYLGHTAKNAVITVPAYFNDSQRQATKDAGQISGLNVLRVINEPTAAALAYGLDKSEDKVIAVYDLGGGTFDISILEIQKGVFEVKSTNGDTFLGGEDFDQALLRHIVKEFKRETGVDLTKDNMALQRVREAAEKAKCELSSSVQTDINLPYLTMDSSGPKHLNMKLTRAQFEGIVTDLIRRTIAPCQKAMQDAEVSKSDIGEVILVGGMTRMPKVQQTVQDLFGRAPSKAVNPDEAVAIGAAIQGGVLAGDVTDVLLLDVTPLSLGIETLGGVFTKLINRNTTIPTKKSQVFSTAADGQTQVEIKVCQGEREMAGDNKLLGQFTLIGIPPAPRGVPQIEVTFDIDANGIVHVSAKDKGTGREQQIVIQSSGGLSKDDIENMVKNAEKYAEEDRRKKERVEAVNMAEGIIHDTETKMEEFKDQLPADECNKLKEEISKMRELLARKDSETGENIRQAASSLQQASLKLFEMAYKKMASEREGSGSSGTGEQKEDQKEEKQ

Legend:
[1] = target: T1, 14-3-3γ, endogenous (human (endogenous in HepG2)) (UniProt P61981); assay: co-IP; HepG2 transfected with ENDOG-Flag or pLVX3-Flag for 48 h; partners endogenous; lysed with Western/IP buffer with PMSF and phosphatase inhibitor cocktail
T1 sequence: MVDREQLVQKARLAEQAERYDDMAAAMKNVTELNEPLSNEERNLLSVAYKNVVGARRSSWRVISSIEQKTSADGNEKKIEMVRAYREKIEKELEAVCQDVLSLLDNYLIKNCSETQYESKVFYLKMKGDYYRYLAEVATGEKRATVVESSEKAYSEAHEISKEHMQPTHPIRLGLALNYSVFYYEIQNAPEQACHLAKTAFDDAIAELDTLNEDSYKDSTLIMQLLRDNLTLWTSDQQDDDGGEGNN

[2] = target: Bip, endogenous (human (endogenous in HepG2)) (UniProt P11021); assay: as above
[3] = target: Grp75, endogenous (human (endogenous in HepG2)) (UniProt P38646); assay: as above
14-3-3γ-Myc = target: T2, 14-3-3γ-Myc (UniProt P61981); assay: co-IP; HepG2 cotransfected with 14-3-3γ-Myc and ENDOG-Flag or pLVX3-Flag for 48 h; lysed with Western/IP buffer with PMSF and phosphatase inhibitor cocktail
T2 sequence: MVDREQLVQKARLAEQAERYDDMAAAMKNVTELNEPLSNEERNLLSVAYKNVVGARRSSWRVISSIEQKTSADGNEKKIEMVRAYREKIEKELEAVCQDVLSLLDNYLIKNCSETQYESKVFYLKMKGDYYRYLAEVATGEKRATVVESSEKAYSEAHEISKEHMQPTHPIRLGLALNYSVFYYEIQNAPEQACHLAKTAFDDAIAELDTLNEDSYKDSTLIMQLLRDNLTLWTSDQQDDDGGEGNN

Bip-Myc = Bip-Myc (UniProt P11021); assay: co-IP; HepG2 cotransfected with Bip-Myc and pK-Myc or ENDOG plasmid for 48 h
[4] = target: T1, 14-3-3γ, endogenous (human (endogenous in HepG2)); assay: co-IP; endogenous co-IP in HepG2: wild-type and ENDOG knockout cells; cells with or without 200 μM oleic acid for 24 h
[5] = target: Bip, endogenous (human (endogenous in HepG2)) (UniProt P11021); assay: as above
[6] = target: Bip, endogenous (human (endogenous in HepG2)) (UniProt P11021); assay: proximity ligation; Duolink in situ PLA with anti-ENDOG and anti-Bip antibodies on fixed HepG2 cells, with or without 200 μM oleic acid for 24 h

- binding [1]: binds
- binding [2]: binds
- binding [3]: binds
- binding (14-3-3γ-Myc): binds
B1: ENDOG-Flag (protein, UniProt Q14249 49-297)
chain: AELPPVPGGPRGPGELAKYGLPGLAQLKSRESYVLCYDPRTRGALWVVEQLRPERLRGDGDRRECDFREDDSVHAYHRATNADYRGSGFDRGHLAAAANHRWSQKAMDDTFYLSNVAPQVPHLNQNAWNNLEKYSRSLTRSYQNVYVCTGPLFLPRTEADGKSYVKYQVIGKNHVAVPTHFFKVLILEAAGGQIELRTYVMPNAPVDEAIPLERFLVPIESIERASGLLFVPNILARAGSLKAITAGSK

- binding (Bip-Myc): binds
B2: ENDOG (overexpressing plasmid, control pK-Myc) (protein, UniProt Q14249 49-297)
chain: AELPPVPGGPRGPGELAKYGLPGLAQLKSRESYVLCYDPRTRGALWVVEQLRPERLRGDGDRRECDFREDDSVHAYHRATNADYRGSGFDRGHLAAAANHRWSQKAMDDTFYLSNVAPQVPHLNQNAWNNLEKYSRSLTRSYQNVYVCTGPLFLPRTEADGKSYVKYQVIGKNHVAVPTHFFKVLILEAAGGQIELRTYVMPNAPVDEAIPLERFLVPIESIERASGLLFVPNILARAGSLKAITAGSK

- binding [4]: binds
- binding [5]: binds
- binding [6]: binds
B3: Endonuclease G (ENDOG), endogenous (protein, UniProt Q14249 49-297)
chain: AELPPVPGGPRGPGELAKYGLPGLAQLKSRESYVLCYDPRTRGALWVVEQLRPERLRGDGDRRECDFREDDSVHAYHRATNADYRGSGFDRGHLAAAANHRWSQKAMDDTFYLSNVAPQVPHLNQNAWNNLEKYSRSLTRSYQNVYVCTGPLFLPRTEADGKSYVKYQVIGKNHVAVPTHFFKVLILEAAGGQIELRTYVMPNAPVDEAIPLERFLVPIESIERASGLLFVPNILARAGSLKAITAGSK
